Laboratory results as given in publication PMC5408658, “In vitro characterization of six STUB1 variants in spinocerebellar ataxia 16 reveals altered structural properties for the encoded CHIP proteins” (Bioscience Reports, 2017).
These are yes or no findings as the source states them, for the method shown. Some entries that bind do so weakly or less than the wild type. Tags and fused reporters may be left off the sequences shown.

Biological target: T1, His-maltose-binding protein (MBP)-CHIP fusion protein, wild type (human), Q9UNE7
T1 chain: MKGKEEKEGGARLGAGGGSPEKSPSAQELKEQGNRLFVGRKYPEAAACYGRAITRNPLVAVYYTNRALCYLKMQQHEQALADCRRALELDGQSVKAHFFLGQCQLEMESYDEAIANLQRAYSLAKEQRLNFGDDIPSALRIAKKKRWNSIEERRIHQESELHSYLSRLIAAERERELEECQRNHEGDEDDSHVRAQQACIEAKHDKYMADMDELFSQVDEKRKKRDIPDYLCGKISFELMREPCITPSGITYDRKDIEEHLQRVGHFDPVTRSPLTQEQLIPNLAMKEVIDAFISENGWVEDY
Experiment: native gel or EMSA; 10 ug MBP fusion protein on a 12% NativePAGE Bis-Tris gel, Coomassie Blue staining; self-association (oligomeric states); both purified
Settings: remark: other sources report otherwise

B1: His-maltose-binding protein (MBP)-CHIP fusion protein, wild type, Q9UNE7-1 1-303 (enzyme)
chain: MKGKEEKEGGARLGAGGGSPEKSPSAQELKEQGNRLFVGRKYPEAAACYGRAITRNPLVAVYYTNRALCYLKMQQHEQALADCRRALELDGQSVKAHFFLGQCQLEMESYDEAIANLQRAYSLAKEQRLNFGDDIPSALRIAKKKRWNSIEERRIHQESELHSYLSRLIAAERERELEECQRNHEGDEDDSHVRAQQACIEAKHDKYMADMDELFSQVDEKRKKRDIPDYLCGKISFELMREPCITPSGITYDRKDIEEHLQRVGHFDPVTRSPLTQEQLIPNLAMKEVIDAFISENGWVEDY
- binding: binds
